# Experimental data from the supplement of paper PMC8728848.
# Some of the results follow.
# Assays:
# Assay in all cases: glycan array binding signal (z-score within array); higher = stronger binding
# Settings in all cases: glycan notation: IUPAC condensed, linker removed
# [1] = biological target: GalNAc(b1-4)GlcNAc
# Outline: (§1)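 Arrays were curated from the Consortium for Functional Glycomics database, 3228 in total, and kept only where the protein sequence was available. Binding is expressed as a within-array Z-score. This score was averaged across arrays of the same protein sequence at different concentrations or buffers and across linkers, and negative values can be read as non-binding.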
# [2] = biological target: GalNAc(b1-4)GlcNAc(b1-2)Man
# Outline: as §1
# [3] = biological target: GalNAc(b1-4)GlcNAc(b1-2)Man(a1-3)[GalNAc(b1-4)GlcNAc(b1-2)Man(a1-6)]Man(b1-4)GlcNAc(b1-4)GlcNAc
# Outline: as §1
# [4] = biological target: GalNAc(b1-4)GlcNAc(b1-3)GalNAc(b1-4)GlcNAc
# Outline: as §1
# [5] = biological target: GalNAc(b1-4)GlcNAc6S
# Outline: as §1
# [6] = biological target: GalNAc(b1-6)GalNAc
# Outline: as §1
# [7] = biological target: GalNAc3S(b1-4)GlcNAc
# Outline: as §1
# [8] = biological target: GalNAc3S(b1-4)GlcNAc3S
# Outline: as §1
# [9] = biological target: GalNAc3S(b1-4)[Fuc(a1-3)]GlcNAc
# Outline: as §1
# [10] = biological target: GalNAc4S6S(b1-4)GlcNAc
# Outline: as §1
# [11] = biological target: GalNAc6S(b1-4)GlcNAc
# Outline: as §1
# [12] = biological target: Glc(a1-4)Glc
# Outline: as §1
# [13] = biological target: Glc(a1-4)Glc(a1-4)Glc(a1-4)Glc
# Outline: as §1
# [14] = biological target: Glc(a1-6)Glc(a1-6)Glc
# Outline: as §1
# [15] = biological target: Glc(a1-6)Glc(a1-6)Glc(a1-6)Glc
# Outline: as §1
# [16] = biological target: Glc(b1-4)Glc
# Outline: as §1
# [17] = biological target: Glc(b1-6)Glc
# Outline: as §1
# [18] = biological target: GlcA(b1-3)Gal
# Outline: as §1
# [19] = biological target: GlcA(b1-3)GlcNAc
# Outline: as §1
# [20] = biological target: GlcA(b1-6)Gal
# Outline: as §1
# [21] = biological target: GlcA3S(b1-3)Gal(b1-4)GlcNAc(b1-2)Man
# Outline: as §1
# [22] = biological target: GlcA3S(b1-3)Gal(b1-4)GlcNAc(b1-3)Gal(b1-4)Glc
# Outline: as §1
# [23] = biological target: GlcNAc(a1-3)Gal(b1-4)GlcNAc
# Outline: as §1
# [24] = biological target: GlcNAc(a1-4)Gal(b1-3)GlcNAc
# Outline: as §1
# [25] = biological target: GlcNAc(a1-4)Gal(b1-4)GalNAc
# Outline: as §1
# [26] = biological target: GlcNAc(a1-4)Gal(b1-4)GlcNAc
# Outline: as §1
# [27] = biological target: GlcNAc(a1-4)Gal(b1-4)GlcNAc(b1-3)Gal(b1-4)Glc
# Outline: as §1
# [28] = biological target: GlcNAc(a1-4)Gal(b1-4)GlcNAc(b1-3)Gal(b1-4)GlcNAc
# Outline: as §1
# [29] = biological target: GlcNAc(a1-4)Gal(b1-4)GlcNAc(b1-3)Gal(b1-4)GlcNAc(b1-3)Gal(b1-4)GlcNAc
# Outline: as §1
# [30] = biological target: GlcNAc(a1-4)Gal(b1-4)GlcNAc(b1-3)Gal(b1-4)[Fuc(a1-3)]GlcNAc(b1-3)Gal(b1-4)[Fuc(a1-3)]GlcNAc
# Outline: as §1
# [31] = biological target: GlcNAc(a1-6)Gal(b1-4)GlcNAc
# Outline: as §1
# [32] = biological target: GlcNAc(b1-2)Gal(b1-3)GalNAc
# Outline: as §1
# [33] = biological target: GlcNAc(b1-2)Man(a1-3)[GlcNAc(b1-2)Man(a1-6)]Man(b1-4)GlcNAc(b1-4)GlcNAc
# Outline: as §1
# [34] = biological target: GlcNAc(b1-2)Man(a1-3)[GlcNAc(b1-2)Man(a1-6)]Man(b1-4)GlcNAc(b1-4)[Fuc(a1-6)]GlcNAc
# Outline: as §1
# [35] = biological target: GlcNAc(b1-2)Man(a1-3)[GlcNAc(b1-4)][GlcNAc(b1-2)Man(a1-6)]Man(b1-4)GlcNAc(b1-4)GlcNAc
# Outline: as §1
# [36] = biological target: GlcNAc(b1-2)Man(a1-3)[GlcNAc(b1-4)][GlcNAc(b1-2)Man(a1-6)]Man(b1-4)GlcNAc(b1-4)[Fuc(a1-6)]GlcNAc
# Outline: as §1
# [37] = biological target: GlcNAc(b1-2)[GlcNAc(b1-4)]Man(a1-3)[GlcNAc(b1-2)Man(a1-6)]Man(b1-4)GlcNAc(b1-4)GlcNAc
# Outline: as §1
# [38] = biological target: GlcNAc(b1-2)[GlcNAc(b1-4)]Man(a1-3)[GlcNAc(b1-4)][GlcNAc(b1-2)Man(a1-6)]Man(b1-4)GlcNAc(b1-4)GlcNAc
# Outline: as §1
# [39] = biological target: GlcNAc(b1-2)[GlcNAc(b1-4)]Man(a1-3)[GlcNAc(b1-4)][GlcNAc(b1-2)[GlcNAc(b1-6)]Man(a1-6)]Man(b1-4)GlcNAc(b1-4)GlcNAc
# Outline: as §1
# [40] = biological target: GlcNAc(b1-2)[GlcNAc(b1-4)]Man(a1-3)[GlcNAc(b1-4)][GlcNAc(b1-2)[GlcNAc(b1-6)]Man(a1-6)]Man(b1-4)GlcNAc(b1-4)[Fuc(a1-6)]GlcNAc
# Outline: as §1
# [41] = biological target: GlcNAc(b1-2)[GlcNAc(b1-6)]Man(a1-6)[GlcNAc(b1-2)Man(a1-3)]Man(b1-4)GlcNAc(b1-4)GlcNAc
# Outline: as §1
# [42] = biological target: GlcNAc(b1-2)[GlcNAc(b1-6)]Man(a1-6)[GlcNAc(b1-2)Man(a1-3)]Man(b1-4)GlcNAc(b1-4)[Fuc(a1-6)]GlcNAc
# Outline: as §1
# [43] = biological target: GlcNAc(b1-2)[GlcNAc(b1-6)]Man(a1-6)[GlcNAc(b1-4)][GlcNAc(b1-2)Man(a1-3)]Man(b1-4)GlcNAc(b1-4)GlcNAc
# Outline: as §1
# [44] = biological target: GlcNAc(b1-3)Fuc
# Outline: as §1
# [45] = biological target: GlcNAc(b1-3)Gal
# Outline: as §1
binder,measurement,setting,value
"EfCBM33A (Enterococcus faecalis), Q838S1 (protein) MKKSLLTIVLAFSFVLGGAALAPTVSEAHGYVASPGSRAFFGSSAGGNLNTNVGRAQWEPQSIEAPKNTFITGKLASAGVSGFEPLDEQTATRWHKTNITTGPLDITWNLTAQHRTASWDYYITKNGWNPNQPLDIKNFDKIASIDGKQEVPNKVVKQTINIPTDRKGYHVIYAVWGIGDTVNAFYQAIDVNIQ",glycan array binding signal (z-score),[1],1.05
same,glycan array binding signal (z-score),[2],-0.337
same,glycan array binding signal (z-score),[3],3.54
same,glycan array binding signal (z-score),[4],0.685
same,glycan array binding signal (z-score),[5],-0.288
same,glycan array binding signal (z-score),[6],-1.4
same,glycan array binding signal (z-score),[7],-0.598
same,glycan array binding signal (z-score),[8],0.074
same,glycan array binding signal (z-score),[9],-0.046
same,glycan array binding signal (z-score),[10],-0.781
same,glycan array binding signal (z-score),[11],1.04
same,glycan array binding signal (z-score),[12],0.612
same,glycan array binding signal (z-score),[13],0.247
same,glycan array binding signal (z-score),[14],0.821
same,glycan array binding signal (z-score),[15],0.158
same,glycan array binding signal (z-score),[16],0.442
same,glycan array binding signal (z-score),[17],-0.404
same,glycan array binding signal (z-score),[18],-0.26
same,glycan array binding signal (z-score),[19],-0.694
same,glycan array binding signal (z-score),[20],0.419
same,glycan array binding signal (z-score),[21],1.24
same,glycan array binding signal (z-score),[22],-0.507
same,glycan array binding signal (z-score),[23],-0.699
same,glycan array binding signal (z-score),[24],-0.301
same,glycan array binding signal (z-score),[25],-1.44
same,glycan array binding signal (z-score),[26],0.391
same,glycan array binding signal (z-score),[27],-0.81
same,glycan array binding signal (z-score),[28],-0.409
same,glycan array binding signal (z-score),[29],-0.298
same,glycan array binding signal (z-score),[30],-0.134
same,glycan array binding signal (z-score),[31],0.346
same,glycan array binding signal (z-score),[32],-0.504
same,glycan array binding signal (z-score),[33],-0.209
same,glycan array binding signal (z-score),[34],-0.746
same,glycan array binding signal (z-score),[35],-0.009
same,glycan array binding signal (z-score),[36],-0.554
same,glycan array binding signal (z-score),[37],0.123
same,glycan array binding signal (z-score),[38],0.065
same,glycan array binding signal (z-score),[39],-0.059
same,glycan array binding signal (z-score),[40],-0.154
same,glycan array binding signal (z-score),[41],-0.321
same,glycan array binding signal (z-score),[42],0.471
same,glycan array binding signal (z-score),[43],-0.977
same,glycan array binding signal (z-score),[44],0.31
same,glycan array binding signal (z-score),[45],0.149

# 4 entries picked at random from those above:
binder,measurement,setting,value
"EfCBM33A (Enterococcus faecalis), Q838S1 (protein) MKKSLLTIVLAFSFVLGGAALAPTVSEAHGYVASPGSRAFFGSSAGGNLNTNVGRAQWEPQSIEAPKNTFITGKLASAGVSGFEPLDEQTATRWHKTNITTGPLDITWNLTAQHRTASWDYYITKNGWNPNQPLDIKNFDKIASIDGKQEVPNKVVKQTINIPTDRKGYHVIYAVWGIGDTVNAFYQAIDVNIQ",glycan array binding signal (z-score),[27],-0.81
same,glycan array binding signal (z-score),[44],0.31
same,glycan array binding signal (z-score),[38],0.065
same,glycan array binding signal (z-score),[9],-0.046
